These results are taken from paper PMC3400551.

The target of experiment [1] is T1, MBP-tagged maize chloroplastic L14 (RPL14) (Zea mays) (UniProt P08529).
T1 sequence: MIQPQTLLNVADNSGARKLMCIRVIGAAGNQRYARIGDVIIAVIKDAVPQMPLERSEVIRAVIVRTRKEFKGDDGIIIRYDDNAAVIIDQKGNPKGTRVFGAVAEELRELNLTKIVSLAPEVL
The experiment is described as follows: pull-down; 25 ug soluble fractions of E. coli BL21(DE3) lysates mixed; NusA-tagged preys co-purified with MBP fusions on amylose beads; 50 mM Tris-HCl pH 8.0, 100 mM NaCl, room temperature 30 min; Western blot. In general terms: A western blot detects proteins with antibodies after separation by electrophoresis.

Experiment [2] deals with T2, Treponema pallidum RsfA (TP0738) (Treponema pallidum) (UniProt O83720).
T2 sequence: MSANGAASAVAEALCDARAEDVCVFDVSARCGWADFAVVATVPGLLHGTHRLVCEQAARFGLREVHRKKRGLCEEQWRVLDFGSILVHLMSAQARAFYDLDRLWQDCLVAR
The experiment in a line: two-hybrid; baits in pGBKT7g and preys in pGADT7g, haploid strains AH109 and Y187 mated; growth of diploids on medium lacking Leu, Trp and His with 0 to 100 mM 3-AT; quadruplicates.

The target in experiment [3] is T3, Treponema pallidum ribosomal protein L14 (TP0199) (Treponema pallidum) (UniProt O83229).
T3 sequence: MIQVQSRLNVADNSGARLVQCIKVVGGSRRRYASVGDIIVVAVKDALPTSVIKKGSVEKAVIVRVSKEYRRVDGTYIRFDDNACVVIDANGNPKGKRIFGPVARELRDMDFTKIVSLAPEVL
Described as above.

Results are given in words; binding and its absence hold for the method and conditions named. For part of these data: In cells and extracts the contact can be indirect. Some entries that bind do so weakly or less than the wild type. For part of these data: Where a sequence is shown, tags or fusion partners need not be part of it.

B1: NusA-His6-tagged maize Iojap (maize RsfA) (protein, UniProt Q41822 63-228)
chain: SQSASSSNVNFGRGDDADKLLEDLLKQHGEVVYSSGGPPDPTVEADDDAECLSFAVSLAKAASEIKATDIRVLCVRRLVYWTRFFIILTAFSNAQIDAISSKMRDIGEKQFSKVASGDTKPNSWTLLDFGDVVVHIFLPQQRAFYNLEEFYGNATPIELPFDTQRQ
For the molecule B1, the binding result in experiment [1] is listed as “binds”.

B2: Treponema pallidum ribosomal protein L14 (TP0199) (protein, UniProt O83229 1-122)
chain: T3 sequence
As to B2, in experiment [2], the binding entry is reported as “binds”.

B3: Treponema pallidum RsfA (TP0738) (protein, UniProt O83720 1-111)
chain: T2 sequence
Take B3: the binding entry in experiment [3] is on record as “binds”.
